This assay addresses Flag-tagged IDH1 wild type (isocitrate dehydrogenase 1) (human) (UniProt O75874). Kind of assay: affinity purification with mass spectrometry; Flag beads-bound proteins from Ishikawa cells with Flag-IDH1, with or without MPA for 24 h; trypsin digest, Q Exactive Plus.

These are yes or no findings as the source states them, for the method shown. In cells and extracts the contact can be indirect. A yes stands for co-enrichment or nearness to the bait. Other partners may have been found.

B1: OCT6 (protein, UniProt Q03052 1-451)
chain: MATTAQYLPRGPGGGAGGTGPLMHPDAAAAAAAAAAAERLHAGAAYREVQKLMHHEWLGAGAGHPVGLAHPQWLPTGGGGGGDWAGGPHLEHGKAGGGGTGRADDGGGGGGFHARLVHQGAAHAGAAWAQGSTAHHLGPAMSPSPGASGGHQPQPLGLYAQAAYPGGGGGGLAGMLAAGGGGAGPGLHHALHEDGHEAQLEPSPPPHLGAHGHAHGHAHAGGLHAAAAHLHPGAGGGGSSVGEHSDEDAPSSDDLEQFAKQFKQRRIKLGFTQADVGLALGTLYGNVFSQTTICRFEALQLSFKNMCKLKPLLNKWLEETDSSSGSPTNLDKIAAQGRKRKKRTSIEVGVKGALESHFLKCPKPSAHEITGLADSLQLEKEVVRVWFCNRRQKEKRMTPAAGAGHPPMDDVYAPGELGPGGGGASPPSAPPPPPPAALHHHHHHTLPGSVQ
In the case of B1, the binding entry is “binds”.

For the origin of these results see paper PMC11187910.
